Data as given in US20240009285A1.
Results are given in words; binding and its absence hold for the method and conditions named. A result given as binding can be weak or reduced; the word gives no strength.

Biological target: lamprey DY-synuclein~GFP (lamprey)
Test: nanobody library screen against DY-synuclein

B1: DB1 (VHH)
VHH: EVQLQASGGGFVQPGGSLRLSCAASGFTSWEDTMGWFRQAPGKEREFVSAISFDANDLSDTSVYYADSVKGRFTISRDNSKNTVYLQMNSLRAEDTATYYCAVASFEILLYGESLHIYWGQGTQVTVSS
In the case of B1, the binding is reported as “binds”.
